Data reported in the supplement of paper PMC4862054.
Most entries show no effect beyond the scatter of the controls.

Assays:
Assay in all cases: normalised response (% of control), CellTox Green; higher = less cell death (100 = DMSO, 0 = benzethonium chloride kill control)
Conditions in all cases: incubation time: 72 h
BT-474 = tested on: BT-474
Description: (§1)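 DSRT, 72 h incubation, CellTox Green / CellTiter-Glo readout. Signal is normalised to DMSO and benzethonium chloride controls. Value is the normalised response at the lowest tested concentration.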

BT-549 = tested on: BT-549
Description: as §1

CAL-120 = tested on: CAL-120
Description: as §1

CAL-148 = tested on: CAL-148
Description: as §1

CAL-51 = tested on: CAL-51
Description: as §1

CAL-85-1 = tested on: CAL-85-1
Description: as §1

DU-4475 = tested on: DU-4475
Description: as §1

HCC1143 = tested on: HCC1143
Description: as §1

HCC1599 = tested on: HCC1599
Description: as §1

HCC1937 = tested on: HCC1937
Description: as §1

HDQ-P1 = tested on: HDQ-P1
Description: as §1

Hs578T = tested on: Hs578T
Description: as §1

MCF-10A = tested on: MCF-10A
Description: as §1

MDA-MB-231 = tested on: MDA-MB-231
Description: as §1

MDA-MB-436 = tested on: MDA-MB-436
Description: as §1

MDA-MB-453 = tested on: MDA-MB-453
Description: as §1

MDA-MB-468 = tested on: MDA-MB-468
Description: as §1

MFM-223 = tested on: MFM-223
Description: as §1

Structure (SMILES) | normalised response (BT-474) | normalised response (BT-549) | normalised response (CAL-120) | normalised response (CAL-148) | normalised response (CAL-51) | normalised response (CAL-85-1) | normalised response (DU-4475) | normalised response (HCC1143) | normalised response (HCC1599) | normalised response (HCC1937) | normalised response (HDQ-P1) | normalised response (Hs578T) | normalised response (MCF-10A) | normalised response (MDA-MB-231) | normalised response (MDA-MB-436) | normalised response (MDA-MB-453) | normalised response (MDA-MB-468) | normalised response (MFM-223)
Nc1ncnc2c1c(COc1cccc(Cl)c1)nn2C1CCOCC1 (1 nM) | 101% | 105% | 110% | 81% | 112% | 103% | 117% | 128% | 117% | 98% | 104% | 108% | 74.4% | 112% | 91.9% | 109% | 75.9% | 106%
CS(=O)(=O)N1CCN(Cc2cc3nc(-c4cccc5[nH]ncc45)nc(N4CCOCC4)c3s2)CC1 [Pictilisib] (1 nM) | 102% | 111% | 101% | 97.2% | 118% | 101% | 100% | 84.4% | 86.8% |  | 83.8% | 103% | 106% |  |  | 113% | 107% | 100%
Cn1cnc2c(F)c(Nc3ccc(Br)cc3F)c(C(=O)NOCCO)cc21 [MEK-162] (0.1 nM) | 100% | 66.8% | 99.8% | 102% | 112% | 99.3% | 101% | 80.6% | 98% | 108% |  | 106% | 95.6% | 84.3% | 90.7% | 99.6% | 122% | 99.4%
O=c1[nH]cc(F)c(=O)[nH]1 [Fluorouracil] (1 nM) | 101% | 100% | 97.3% |  | 116% | 96.9% | 108% | 119% | 114% | 84.4% | 53.3% | 91.3% | 103% | 115% | 102% | 106% | 56.9% | 88.4%
CC(C)(C)c1nc(-c2cccc(NS(=O)(=O)c3c(F)cccc3F)c2F)c(-c2ccnc(N)n2)s1 [Dabrafenib] (0.25 nM) | 99.9% | 100% | 106% |  | 106% | 99% | 110% | 103% | 113% | 116% |  | 113% | 102% | 111% | 102% | 108% | 111% | 106%
CC[C@H](Nc1ncnc2[nH]cnc12)c1nc2cccc(F)c2c(=O)n1-c1ccccc1 [GS-1101] (1 nM) | 92% | 100% | 99.8% | 100% | 104% | 105% | 95.7% | 112% | 96.5% |  | 81.1% | 104% | 92.9% |  | 83.8% | 102% | 84.9% | 97.6%
